# Results from article PMC6283830.
# Protein sequences, listed by entry. Tags and fused reporters are not part of them.
# UniProt P10275: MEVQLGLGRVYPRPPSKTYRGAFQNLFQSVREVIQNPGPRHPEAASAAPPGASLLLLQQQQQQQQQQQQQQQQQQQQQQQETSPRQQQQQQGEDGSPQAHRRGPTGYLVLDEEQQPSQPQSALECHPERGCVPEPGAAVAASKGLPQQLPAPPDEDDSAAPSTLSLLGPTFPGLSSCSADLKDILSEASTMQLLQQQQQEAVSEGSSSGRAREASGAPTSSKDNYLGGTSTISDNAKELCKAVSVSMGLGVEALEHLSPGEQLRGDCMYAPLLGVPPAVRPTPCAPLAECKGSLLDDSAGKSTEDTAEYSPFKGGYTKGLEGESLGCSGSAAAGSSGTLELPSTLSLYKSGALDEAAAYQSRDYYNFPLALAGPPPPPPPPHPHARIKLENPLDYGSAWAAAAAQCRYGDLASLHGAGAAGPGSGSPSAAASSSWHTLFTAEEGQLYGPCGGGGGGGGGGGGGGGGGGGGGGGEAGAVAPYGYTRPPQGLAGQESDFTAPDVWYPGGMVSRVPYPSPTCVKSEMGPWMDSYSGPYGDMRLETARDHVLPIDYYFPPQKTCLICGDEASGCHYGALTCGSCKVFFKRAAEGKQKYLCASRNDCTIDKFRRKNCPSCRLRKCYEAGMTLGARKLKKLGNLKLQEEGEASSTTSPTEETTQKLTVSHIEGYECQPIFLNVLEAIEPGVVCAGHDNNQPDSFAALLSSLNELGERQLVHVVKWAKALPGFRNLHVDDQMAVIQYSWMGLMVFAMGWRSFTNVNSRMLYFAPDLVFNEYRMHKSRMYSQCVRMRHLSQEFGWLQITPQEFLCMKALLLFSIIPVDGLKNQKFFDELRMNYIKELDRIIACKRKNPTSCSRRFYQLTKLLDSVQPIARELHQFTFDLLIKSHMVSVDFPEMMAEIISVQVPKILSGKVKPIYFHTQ
# UniProt P40763: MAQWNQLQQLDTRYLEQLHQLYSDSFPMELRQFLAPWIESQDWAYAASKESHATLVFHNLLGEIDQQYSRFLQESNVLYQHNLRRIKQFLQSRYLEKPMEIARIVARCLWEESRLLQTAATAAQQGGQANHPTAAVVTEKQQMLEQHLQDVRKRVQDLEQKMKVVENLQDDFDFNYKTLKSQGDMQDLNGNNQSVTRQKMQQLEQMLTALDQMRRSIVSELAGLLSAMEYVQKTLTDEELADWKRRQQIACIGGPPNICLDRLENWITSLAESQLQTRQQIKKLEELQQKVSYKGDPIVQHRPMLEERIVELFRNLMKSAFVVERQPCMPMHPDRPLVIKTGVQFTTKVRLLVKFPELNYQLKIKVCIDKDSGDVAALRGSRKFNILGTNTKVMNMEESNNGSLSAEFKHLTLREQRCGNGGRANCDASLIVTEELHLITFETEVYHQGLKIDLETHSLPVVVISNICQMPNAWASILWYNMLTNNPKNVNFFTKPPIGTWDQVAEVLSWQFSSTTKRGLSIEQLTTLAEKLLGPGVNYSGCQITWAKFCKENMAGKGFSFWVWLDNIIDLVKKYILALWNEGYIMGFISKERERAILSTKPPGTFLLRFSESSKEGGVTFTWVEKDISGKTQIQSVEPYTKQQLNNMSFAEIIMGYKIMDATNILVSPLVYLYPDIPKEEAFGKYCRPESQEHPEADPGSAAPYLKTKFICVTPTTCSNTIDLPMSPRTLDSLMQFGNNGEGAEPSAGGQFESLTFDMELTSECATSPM
# Results are given in words; binding and its absence hold for the method and conditions named. Binding seen in cells or lysates may run through a third protein. Some entries that bind do so weakly or less than the wild type.
# Columns and labels:
# [1] = target: androgen receptor (human (endogenous in LO2 and SK-Hep1)) (UniProt P10275); assay: condition: only cells transfected with empty vector (no ectopic CCRK); co-IP; as a1, but cells transfected with empty vector
# [2] = target: androgen receptor (human (endogenous in LO2 and SK-Hep1)) (UniProt P10275); assay: condition: only cells transfected with kinase-defective (KD) CCRK; co-IP; as a1, but cells transfected with kinase-defective (KD, T161A) CCRK
# [3] = target: androgen receptor (human (endogenous in LO2 and SK-Hep1)) (UniProt P10275); assay: co-IP; lysates of LO2 and SK-Hep1 cells transfected with WT CCRK; immunoprecipitated with anti-p-STAT3 Tyr705 or anti-AR (IgG as control) at 4 °C overnight, protein A/G beads; co-IP lysis buffer 20 mM Tris pH 7.5, 150 mM NaCl, 1.0% Triton X-100, 1 mM EDTA; detected by western blot
substance,measurement,setting,value
STAT3 phosphorylated at Tyr705 (signal transducer and activator of transcription 3) (from UniProt P40763 1-770),binding,[1],no binding
same,binding,[2],no binding
same,binding,[3],binds
